Experimental data taken from paper PMC5248453.
Like-named read-outs stand apart in the source and are kept apart here. No constants are given. Whether binding was seen depends on the method and setting. In cells and extracts the contact can be indirect. Some binding calls cover weakened binding; strength is not graded here. Each block holds one molecule with its values, some of them ahead of it.

The chains behind the UniProt entries cited, without tags or fusion partners. Residues count along the entry.
UniProt P35222: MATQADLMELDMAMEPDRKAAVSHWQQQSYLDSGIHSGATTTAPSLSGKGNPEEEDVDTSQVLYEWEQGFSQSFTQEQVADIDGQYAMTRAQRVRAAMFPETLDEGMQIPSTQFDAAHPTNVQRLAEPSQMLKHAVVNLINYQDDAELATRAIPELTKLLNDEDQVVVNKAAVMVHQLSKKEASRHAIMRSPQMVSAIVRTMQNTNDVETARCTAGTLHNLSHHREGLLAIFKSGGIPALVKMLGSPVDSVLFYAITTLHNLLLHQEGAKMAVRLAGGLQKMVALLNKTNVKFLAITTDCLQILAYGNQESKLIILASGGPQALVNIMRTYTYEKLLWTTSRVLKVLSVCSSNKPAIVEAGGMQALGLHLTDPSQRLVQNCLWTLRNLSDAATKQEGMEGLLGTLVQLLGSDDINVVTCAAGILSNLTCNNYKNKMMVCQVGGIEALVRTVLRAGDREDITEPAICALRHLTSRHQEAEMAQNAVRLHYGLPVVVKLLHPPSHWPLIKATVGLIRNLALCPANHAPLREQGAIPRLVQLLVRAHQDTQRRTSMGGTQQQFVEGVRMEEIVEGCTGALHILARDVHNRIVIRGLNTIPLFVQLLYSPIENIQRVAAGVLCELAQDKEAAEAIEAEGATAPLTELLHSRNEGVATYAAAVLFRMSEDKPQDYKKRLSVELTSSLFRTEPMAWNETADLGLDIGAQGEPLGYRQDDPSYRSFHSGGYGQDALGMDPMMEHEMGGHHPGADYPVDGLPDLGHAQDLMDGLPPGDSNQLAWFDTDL
UniProt P12830, residues 732-882: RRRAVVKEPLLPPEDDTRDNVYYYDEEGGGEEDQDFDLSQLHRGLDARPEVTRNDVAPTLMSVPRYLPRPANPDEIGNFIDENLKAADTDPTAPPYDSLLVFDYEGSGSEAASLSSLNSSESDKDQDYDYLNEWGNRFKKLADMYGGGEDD
UniProt Q5S007: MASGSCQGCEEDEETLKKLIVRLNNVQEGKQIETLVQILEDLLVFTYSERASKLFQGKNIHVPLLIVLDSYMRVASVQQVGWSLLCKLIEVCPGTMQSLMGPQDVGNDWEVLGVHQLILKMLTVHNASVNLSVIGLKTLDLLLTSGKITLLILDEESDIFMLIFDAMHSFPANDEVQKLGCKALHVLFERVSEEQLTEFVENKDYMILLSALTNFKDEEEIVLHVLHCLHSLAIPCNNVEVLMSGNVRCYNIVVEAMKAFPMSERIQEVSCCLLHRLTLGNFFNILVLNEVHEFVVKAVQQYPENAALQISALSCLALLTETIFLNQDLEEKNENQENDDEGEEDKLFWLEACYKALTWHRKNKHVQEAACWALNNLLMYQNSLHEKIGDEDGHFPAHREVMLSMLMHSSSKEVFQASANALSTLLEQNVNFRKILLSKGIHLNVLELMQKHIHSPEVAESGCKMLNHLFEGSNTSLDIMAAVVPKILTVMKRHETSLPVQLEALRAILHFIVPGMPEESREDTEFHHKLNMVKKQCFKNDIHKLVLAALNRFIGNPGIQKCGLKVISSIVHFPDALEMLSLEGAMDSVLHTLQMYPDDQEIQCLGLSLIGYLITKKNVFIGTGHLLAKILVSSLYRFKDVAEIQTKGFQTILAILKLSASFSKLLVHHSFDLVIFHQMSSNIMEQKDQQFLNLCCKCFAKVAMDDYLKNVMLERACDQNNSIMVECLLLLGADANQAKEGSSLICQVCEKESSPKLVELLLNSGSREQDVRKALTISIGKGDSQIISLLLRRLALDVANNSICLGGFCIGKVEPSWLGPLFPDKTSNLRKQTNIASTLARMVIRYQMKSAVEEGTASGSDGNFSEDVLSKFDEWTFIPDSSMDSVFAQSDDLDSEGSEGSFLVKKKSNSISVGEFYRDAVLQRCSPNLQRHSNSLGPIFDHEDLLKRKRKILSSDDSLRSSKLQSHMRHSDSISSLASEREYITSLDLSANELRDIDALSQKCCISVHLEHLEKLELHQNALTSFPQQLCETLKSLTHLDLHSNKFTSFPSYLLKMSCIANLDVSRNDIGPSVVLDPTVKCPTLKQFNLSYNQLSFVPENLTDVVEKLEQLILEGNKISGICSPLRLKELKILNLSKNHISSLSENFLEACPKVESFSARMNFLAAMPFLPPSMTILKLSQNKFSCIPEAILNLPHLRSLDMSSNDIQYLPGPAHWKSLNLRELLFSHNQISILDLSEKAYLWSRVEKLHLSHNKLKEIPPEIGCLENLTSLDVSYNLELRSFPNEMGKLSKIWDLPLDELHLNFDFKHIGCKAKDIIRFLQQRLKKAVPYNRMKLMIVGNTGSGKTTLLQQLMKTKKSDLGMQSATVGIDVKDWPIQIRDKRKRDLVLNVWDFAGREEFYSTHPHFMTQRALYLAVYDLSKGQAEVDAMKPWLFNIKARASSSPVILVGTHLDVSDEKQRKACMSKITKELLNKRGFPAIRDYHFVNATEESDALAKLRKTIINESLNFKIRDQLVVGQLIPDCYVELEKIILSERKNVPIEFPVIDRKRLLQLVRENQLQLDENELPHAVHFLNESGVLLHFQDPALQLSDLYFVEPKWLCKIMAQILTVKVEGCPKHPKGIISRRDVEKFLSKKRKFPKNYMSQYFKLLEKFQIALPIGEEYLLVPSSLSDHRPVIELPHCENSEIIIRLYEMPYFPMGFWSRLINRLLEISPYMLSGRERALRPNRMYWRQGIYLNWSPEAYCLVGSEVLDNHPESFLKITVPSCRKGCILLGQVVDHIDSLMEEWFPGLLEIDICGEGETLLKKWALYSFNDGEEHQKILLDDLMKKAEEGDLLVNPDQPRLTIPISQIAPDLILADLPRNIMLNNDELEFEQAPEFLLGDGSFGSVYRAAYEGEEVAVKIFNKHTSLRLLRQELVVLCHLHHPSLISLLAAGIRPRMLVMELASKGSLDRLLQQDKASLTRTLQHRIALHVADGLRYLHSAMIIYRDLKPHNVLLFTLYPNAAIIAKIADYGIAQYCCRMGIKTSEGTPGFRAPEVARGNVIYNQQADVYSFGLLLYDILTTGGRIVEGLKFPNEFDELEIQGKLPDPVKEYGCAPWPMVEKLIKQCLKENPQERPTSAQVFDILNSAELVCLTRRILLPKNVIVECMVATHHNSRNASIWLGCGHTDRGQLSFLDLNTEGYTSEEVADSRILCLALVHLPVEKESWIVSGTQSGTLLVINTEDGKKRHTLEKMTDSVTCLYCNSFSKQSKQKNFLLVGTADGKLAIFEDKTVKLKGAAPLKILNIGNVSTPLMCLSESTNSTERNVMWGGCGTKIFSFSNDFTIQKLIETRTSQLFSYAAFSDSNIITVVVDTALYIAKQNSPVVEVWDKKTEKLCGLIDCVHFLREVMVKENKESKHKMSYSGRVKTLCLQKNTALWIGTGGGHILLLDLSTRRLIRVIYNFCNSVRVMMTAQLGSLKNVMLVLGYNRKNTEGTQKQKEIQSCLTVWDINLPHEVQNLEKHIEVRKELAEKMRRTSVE
UniProt Q02248: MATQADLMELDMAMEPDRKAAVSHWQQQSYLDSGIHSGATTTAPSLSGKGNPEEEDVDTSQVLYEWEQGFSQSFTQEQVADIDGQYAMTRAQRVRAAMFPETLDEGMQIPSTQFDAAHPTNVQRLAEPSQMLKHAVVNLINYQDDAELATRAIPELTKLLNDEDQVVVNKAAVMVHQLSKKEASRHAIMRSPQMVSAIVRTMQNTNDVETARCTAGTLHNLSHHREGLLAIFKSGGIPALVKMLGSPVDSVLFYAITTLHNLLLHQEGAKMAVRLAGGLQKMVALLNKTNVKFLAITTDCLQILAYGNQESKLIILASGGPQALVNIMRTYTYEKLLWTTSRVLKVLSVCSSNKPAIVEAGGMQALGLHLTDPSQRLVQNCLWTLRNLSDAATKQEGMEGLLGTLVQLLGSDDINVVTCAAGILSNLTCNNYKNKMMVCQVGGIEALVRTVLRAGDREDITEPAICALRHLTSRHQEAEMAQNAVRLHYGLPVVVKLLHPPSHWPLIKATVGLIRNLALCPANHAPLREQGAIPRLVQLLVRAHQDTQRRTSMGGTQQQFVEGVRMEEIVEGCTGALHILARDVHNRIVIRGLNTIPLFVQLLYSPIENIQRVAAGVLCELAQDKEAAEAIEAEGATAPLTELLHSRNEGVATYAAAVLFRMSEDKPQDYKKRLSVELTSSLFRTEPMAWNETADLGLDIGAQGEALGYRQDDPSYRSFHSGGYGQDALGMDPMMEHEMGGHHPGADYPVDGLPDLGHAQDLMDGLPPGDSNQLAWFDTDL

Columns and labels:
[1] = biological target: FLAG-tagged β-catenin (UniProt P35222); assay: co-IP; HEK293 cells co-transfected with FLAG-β-catenin and myc-LRRK2, lysed 24 h later in 150 mM NaCl, 50 mM Tris pH 7.5, 2 mM EDTA, 1% Triton X-100; anti-FLAG M2 affinity gel 1 h at 4 °C, eluted with 3xFLAG peptide; blot for myc; no proteasome inhibitor
[2] = biological target: GST-ECT (E-cadherin cytosolic tail expressed as a GST fusion protein) (human) (UniProt P12830); assay: pull-down; GST-ECT on glutathione-Sepharose beads (20 μl) incubated overnight at 4 °C with mouse brain lysate (2 mg total protein; 50 mM Tris pH 7.5, 150 mM NaCl, 5 mM MgCl2, 1% NP-40); five washes; blot for β-catenin; brains of wild-type, Lrrk2 heterozygous and Lrrk2 knockout mice; only the target purified
[3] = biological target: GST-ECT (E-cadherin cytosolic tail expressed as a GST fusion protein) (human) (UniProt P12830); assay: as above; remark: listed apart in the source

binding [1]: binds
Molecule: myc-tagged LRRK2 (leucine-rich repeat kinase 2) (from UniProt Q5S007 1-2527)

binding [2]: binds
Molecule: β-catenin (free, monomeric; endogenous in mouse brain) (from UniProt Q02248 1-781)

binding [3]: no binding
B1: calnexin (endogenous in mouse brain) (protein, UniProt P35564 21-591)
chain: HDGHDDDAIDIEDDLDDVIEEVEDSKSKSDASTPPSPKVTYKAPVPTGEVYFADSFDRGSLSGWILSKAKKDDTDDEIAKYDGKWEVDEMKETKLPGDKGLVLMSRAKHHAISAKLNKPFLFDTKPLIVQYEVNFQNGIECGGAYVKLLSKTAELSLDQFHDKTPYTIMFGPDKCGEDYKLHFIFRHKNPKTGVYEEKHAKRPDADLKTYFTDKKTHLYTLILNPDNSFEILVDQSVVNSGNLLNDMTPPVNPSREIEDPEDRKPEDWDERPKIADPDAVKPDDWDEDAPSKIPDEEATKPEGWLDDEPEYIPDPDAEKPEDWDEDMDGEWEAPQIANPKCESAPGCGVWQRPMIDNPNYKGKWKPPMIDNPNYQGIWKPRKIPNPDFFEDLEPFKMTPFSAIGLELWSMTSDIFFDNFIISGDRRVVDDWANDGWGLKKAADGAAEPGVVLQMLEAAEERPWLWVVYILTVALPVFLVILFCCSGKKQSNAMEYKKTDAPQPDVKDEEGKEEEKNKRDEEEEEEKLEEKQKSDAEEDGVTGSQDEEDSKPKAEEDEILNRSPRNRKPRRE
